Test results: PubChem BioAssay AID493014 (National Center for Advancing Translational Sciences (NCATS), 2011)
The campaign covered roughly 340,000 compounds. About 170 (0.05%) were called active. Inconclusive results, whose numbers are uncertain, are shown with a selection of clear calls. Calls come from the whole dose curve; as a rule, active = well fitted inhibition curve with a large enough effect in the signal ratio, with a control signal flat (not every such curve was filed as active); inconclusive = small, poorly fitted or top-dose-only effect, or effect the other way, or a change in a side signal; inactive = flat fitted curve, though single readings scatter; the % refers to the signal ratio. A potency beside an inconclusive call is a rough fit, not a confirmed value.

assay: qHTS Assay to Find Inhibitors of Chronic Active B-Cell Receptor Signaling; conditions: ABC-DLBCL IkBa-CBG/CBR reporter, luminescence ratio (green luciferase fused to IkBa over red control in TMD8 lymphoma cells), 4 h; activity change, negative = inhibition: at 46.1 µM (top of the series);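 for activity change, negative = inhibition: plate controls were basal doxycycline-induced cells for no effect and cells given 10 µM MG132 for full effect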
Summary of the method: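 TMD8 ABC-DLBCL cells carrying doxycycline-inducible green luciferase fused to IkappaBalpha plus unfused red luciferase were exposed to compounds (up to 46 uM) for 4 hrs at 37C. Activity came from the overlap-corrected green/red luminescence ratio.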
Potency is the fitted concentration of half-maximal effect.

Row | SMILES | activity change, negative = inhibition | Potency
1 | O=C(COC(=O)c1cc(-c2ccco2)nc2ccccc12)NCc1ccccc1 | inconclusive: 26.6% | 
2 | O=C(O)/C=C/C(=O)Nc1ccccc1C(=O)Nc1ccccc1 | inconclusive: 29.2% | 
3 | COc1ccc(Cl)cc1C(=O)O/N=C(\N)c1ccncc1 | inconclusive: 0.458% | 
4 | CC(C)(C)c1ccc(CN2N=Nc3ccccc3S2(=O)=O)cc1 | inconclusive: -24.9% | 
5 | Cc1cccc(C(=O)OCC(=O)N(CC(C)C)c2c(N)n(Cc3ccccc3)c(=O)[nH]c2=O)c1O | inactive | 
6 | Cc1ccc(S(=O)(=O)ON2C(=O)c3ccccc3C2=O)c(C)c1 |  | inconclusive: 32.6 µM [falling, partial curve, poor fit]
7 | Cc1ccc(NC(=O)CCc2c(C)nn(-c3ccc(N4CCCCC4)nn3)c2C)cc1 | inactive | 
8 | CCN1CCc2c(sc(NC(=O)c3ccc(S(=O)(=O)N4CCCC(C)C4)cc3)c2C(=O)OC)C1 (stereo not drawn) | inconclusive: 3.78% | 
9 | CCCc1[nH]nc2c1C(c1ccncc1)C(C#N)=C(N)O2 (stereo not drawn) | inconclusive: -2.54% | 
10 | COc1ccc(C(=O)c2cc(C(C)=O)c(Nc3ccccc3)s2)cc1 | inactive | 
11 | CCOC(=O)N1CCN(C(=O)c2cn(CCOC)c(=O)c3c2c2ccccc2n3C)CC1 | inactive | 
12 | Cc1nn(Cc2c(F)c(F)c(F)c(F)c2F)c(C)c1NC(=O)c1nn(C)c(C)c1Br | inactive | 
13 | CC(=O)Nc1cccc(NC(=O)CCc2ccccc2)c1 |  | inconclusive: 6.51 µM [falling, full curve]
14 | CCS(=O)(=O)c1cc([N+](=O)[O-])c(Sc2ccccc2N)s1 |  | inconclusive: 2.51 µM [rising, full curve, poor fit]
15 | CN(C)C(=O)c1cn(-c2ccccc2)nc1-c1cccc([N+](=O)[O-])c1 | inconclusive: 2.72% | 
16 | O=C(c1ccccc1)N1CCN(CC(O)COCC2CC=CCC2)CC1 (stereo not drawn) | inactive | 
17 | COC(=O)C1=CN(Cc2ccc(OC)c(OC)c2)C=C(C(=O)OC)C1c1ccc(F)cc1 | inconclusive: -3.87% | 
18 | COc1ccc(/C=C2\SC(=S)N(CCC(=O)Nc3ccc(C(=O)O)cc3)C2=O)cc1 |  | inconclusive: 10 µM [falling, partial curve]
19 | Cc1ccc(OCC(=O)N/N=C\c2c(C)[nH]n(-c3ccccc3)c2=O)c([N+](=O)[O-])c1 | inactive | 
20 | Oc1ccc(/C=N/NC2=NCCCCC2)cc1 |  | inconclusive: 11.6 µM [falling, partial curve]
21 | COC(=O)c1cccc2c1-c1ccccc1/C2=N/O | inconclusive: 2.68% | 
22 | Cc1cc(C)n(CCC(=O)N2CCN(S(=O)(=O)c3ccccc3)CC2)n1 | inactive | 
23 | CCOC(=O)c1c(S(=O)(=O)N2CCC(C(=O)NCc3cccc(OC)c3)CC2)c(C)n(C)c1C | inconclusive: -24.2% | 
24 | COc1cccc(N2CCN(C(=O)c3ccc(CS(=O)Cc4ccc(Cl)cc4)o3)CC2)c1 (stereo not drawn) | inactive | 
25 | O=C(N/N=C/c1ccc2c(c1)OCO2)c1ccc2ccccc2n1 | inconclusive: -15.9% | 
26 | COc1ccc(NC(=O)COc2ccc(/C=N/NC(=O)c3cccnc3)cc2OC)cc1 | inconclusive: -11.2% | 

An excerpt from above in order of number of heavy atoms, low to high.
Row | SMILES | activity change, negative = inhibition | Potency
21 | COC(=O)c1cccc2c1-c1ccccc1/C2=N/O | inconclusive: 2.68% | 
19 | Cc1ccc(OCC(=O)N/N=C\c2c(C)[nH]n(-c3ccccc3)c2=O)c([N+](=O)[O-])c1 | inactive | 
7 | Cc1ccc(NC(=O)CCc2c(C)nn(-c3ccc(N4CCCCC4)nn3)c2C)cc1 | inactive | 
8 | CCN1CCc2c(sc(NC(=O)c3ccc(S(=O)(=O)N4CCCC(C)C4)cc3)c2C(=O)OC)C1 (stereo not drawn) | inconclusive: 3.78% | 

(further entries)

Row | SMILES | activity change, negative = inhibition | Potency
27 | CCOC(=O)c1cnc2ccc(OC)cc2c1NCc1ccccc1 |  | inconclusive: 29.1 µM [rising, single point]
28 | N#Cc1cc2c(=O)n3ccccc3nc2n(-c2ccccc2Cl)c1=O | inactive | 
29 | O=C(N/N=C/c1cccc([N+](=O)[O-])c1)c1ccccc1-n1cccc1 | inactive | 
30 | CC[n+]1c(/C=C/N(C)c2ccccc2)n(-c2ccccc2)c2ccc(-c3nc4ccccc4s3)cc21 | inconclusive: 14.4% | 
31 | CCOC(=O)C1CCN(C(=O)c2ccc(N(C)S(C)(=O)=O)cc2)CC1 | inactive | 
32 | Cc1ccc2c(c1)C1(C)C(C(C)(C)N2C=O)C1(Cl)Cl (stereo not drawn) | inconclusive: 4.55% | 
33 | Cc1cc(C(=O)N/N=C/c2ccc3c(c2)OCO3)c(C)o1 |  | inconclusive: 3.55 µM [rising, partial curve, poor fit]
34 | [O-]/[N+](=C\C=C\c1ccccc1)c1ccccc1 |  | inconclusive: 22.4 µM [falling, single point]
35 | COc1ccccc1NC(=O)COc1coc(CN2CCN(c3ccccc3)CC2)cc1=O | inconclusive: -5.62% | 
36 | COc1ccc2cc3cc(C(=O)Nc4ccc5c(c4)OCCO5)oc3nc2c1 | inconclusive: -1.96% | 
37 | COc1ccc2oc(C(=O)c3ccccc3)c(N)c2c1 | inactive | 
38 | CCN(CC)S(=O)(=O)c1ccc(N=Nc2c(C)[nH]n(C(N)=S)c2=O)cc1 | inconclusive: 21.3% | 
39 | Cc1cccc(NC(=S)N(CCN2CCOCC2)Cc2cc3cc4c(cc3[nH]c2=O)OCCO4)c1 |  | inconclusive: 10 µM [falling, partial curve, poor fit]
40 | CC(=O)C1=C(C)NC(SCC(N)=O)=C(C#N)C1C (stereo not drawn) |  | inconclusive: 0.0058 µM [falling, full curve, poor fit]
41 | COc1ccc(C=NCC2OCCc3ccccc32)cc1OC (stereo not drawn) | inconclusive: 0.227% | 
42 | CCOC(=O)N1CCN(Cc2nc3c(c(=O)n(C)c(=O)n3C)n2Cc2ccccc2)CC1 | inconclusive: 3.32% | 
43 | CCOc1ccc(NC(=O)c2cc(SC)ccc2Cl)cc1 |  | inconclusive: 16.4 µM [falling, partial curve]
44 | Cn1cc(S(=O)(=O)N2CCc3ccccc32)cc1C(=O)Nc1ccc(Cl)cc1 | inconclusive: -1.63% | 
45 | O=C(NCC1CCCO1)c1cccc(Oc2ccc([N+](=O)[O-])cc2)c1 (stereo not drawn) |  | inconclusive: 35.5 µM [falling, partial curve, poor fit]
46 | CCCCN(CCCC)CC(O)CN1C(=O)NC(C)(C)C1=O (stereo not drawn) | inconclusive: 0.229% | 
47 | COc1cccc(-c2c(C(=O)N/N=C/c3ccc(C)o3)nnn2-c2nonc2N)c1 | inconclusive: 0.464% | 
48 | COc1ccc(-n2c(=O)c(CCC(=O)NCCc3ccccc3F)nc3ccccc32)cc1 | inconclusive: 9.34% | 
49 | Cc1cc(Cl)c(OCCCn2ccnc2)c(Br)c1 | inconclusive: -7.13% | 
50 | C=CCC[C@@H](Cc1ccc(F)cc1)C(=O)OC[C@@H](C)NC(=O)[C@H](CC=C)CC(=O)N(CCO)Cc1ccccc1 | inconclusive: -5.31% | 
51 | O=C(Nc1ccon1)c1sc2cc(Cl)ccc2c1Cl | inactive | 
52 | CCc1cc(C(=O)NNC(=O)CCN2CCN(c3ccccc3)CC2)sc1C | inactive | 

Row | SMILES | activity change, negative = inhibition | Potency
53 | COc1cc(OC)cc(-c2nnc(Nc3nc4c(F)cccc4s3)o2)c1 | inactive | 
54 | CCn1nnnc1SCC(=O)Nc1nc2ccc(OC)cc2s1 | inactive | 
55 | CCCC(=O)Nc1sc(Cc2ccccc2)c(C)c1C(N)=O |  | inconclusive: 2.24 µM [rising, full curve, poor fit]
56 | COc1cc(SC#N)ccc1N=Cc1c(C)[nH]n(-c2ccc(C)c(C)c2)c1=O | inconclusive: 6.61% | 
57 | N/N=C(/Cc1nc2ccccc2[nH]1)c1ccc([N+](=O)[O-])cc1 |  | inconclusive: 17.8 µM [falling, partial curve]
58 | Cc1onc(-c2ccccc2)c1-c1n[nH]c(=S)n1-c1ccc(C(=O)O)cc1 | inconclusive: 11.8% | 
59 | Cc1ccc(C2=NN(C(=O)CSc3nc4ncc(Cl)cc4[nH]3)C(c3ccco3)C2)cc1 (stereo not drawn) | inconclusive: -15.9% | 
60 | COc1cc2c(cc1OC)C(c1cc3ccccc3oc1=O)=NC(C)(C)C2 |  | inconclusive: 10 µM [falling, partial curve, poor fit]
61 | COc1ccc(NC(=O)CSc2nnc(Cc3ccccc3)c(=O)n2N)cc1OC | inconclusive: -5.98% | 
62 | O=C(NNC(=O)C1CC=CCC1C(=O)O)c1ccc(Cl)cc1 (stereo not drawn) | inconclusive: -21% | 
63 | O=[N+]([O-])c1cccc(CNCc2ccccc2)c1 | inconclusive: -25.6% | 
64 | O=C1c2ccccc2C(Nc2ccc3nc(-c4cccnc4)[nH]c3c2)N1Cc1ccco1 (stereo not drawn) | inconclusive: -0.61% | 
65 | O=C(O)c1ccccc1-c1nc2ccccc2[nH]1 |  | inconclusive: 35.5 µM [falling, single point]
66 | O=C(Nc1cc(Cl)cc(Cl)c1)c1cc(S(=O)(=O)NC2CCCC2)ccc1F | inconclusive: 10.3% | 
67 | COc1ccc(OC)c(S(=O)(=O)Nc2ccc(CC(=O)O)cc2)c1 | inconclusive: 9.26% | 
68 | COCCN1CN=C(Nc2nc(C)c3ccc(C)cc3n2)NC1 | inconclusive: 0.792% | 
69 | O=C(COc1ccccc1Cl)NC(=O)NC1CCCCC1 |  | inconclusive: 20.6 µM [falling, partial curve]
70 | Nc1ccc2nc(-c3cccc(-c4nc5ccc(N)cc5[nH]4)c3)[nH]c2c1 | inconclusive: -1.7% | 
71 | CSCC[C@H](NC(=O)[C@H](Cc1ccccc1)n1c(=O)[nH]c2ccccc2c1=O)C(=O)N1CCC(C(=O)O)CC1 | inconclusive: -9.66% | 
72 | CSc1cccc(NC(=S)NC(=O)CCc2ccccc2)c1 | inconclusive: 0.535% | 
73 | Cn1ccc(C(=O)N/N=C/c2ccccc2[N+](=O)[O-])n1 |  | inconclusive: 35.5 µM [rising, single point]
74 | COC(=O)c1ccc(-n2nnnc2SCC(=O)Nc2cc(OC)ccc2OC)cc1 | inactive | 
75 | COc1ccc(-n2c(C)c(C)c3c(N)ncnc32)cc1 |  | inconclusive: 35.5 µM [falling, single point]
76 | Cn1c(SCC(=O)c2ccccc2)nc2cccnc21 | inconclusive: -17.1% | 
77 | COC(=O)c1ccc(NC(=S)N2CCN(Cc3ccccc3)CC2)cc1 | inactive | 
78 | CC1(C)CC[C@]2(C(=O)O)CC[C@]3(C)C(=CC[C@@H]4[C@@]5(C)CC[C@H](O[C@@H]6O[C@H](C(=O)O)[C@@H](O)[C@H](O[C@@H]7OC[C@H](O)[C@H](O)[C@H]7O)[C@H]6O)C(C)(C)[C@@H]5CC[C@]43C)[C@@H]2C1 | inconclusive: 10.4% | 
